These are yes or no findings as the source states them, for the method shown. In cells and extracts the contact can be indirect. Some binding calls cover weakened binding; strength is not graded here.
Molecular target: T1, B cell receptor associated protein 31 (BAP31) (human (endogenous in HCC cells)) (UniProt P51572)
T1 sequence: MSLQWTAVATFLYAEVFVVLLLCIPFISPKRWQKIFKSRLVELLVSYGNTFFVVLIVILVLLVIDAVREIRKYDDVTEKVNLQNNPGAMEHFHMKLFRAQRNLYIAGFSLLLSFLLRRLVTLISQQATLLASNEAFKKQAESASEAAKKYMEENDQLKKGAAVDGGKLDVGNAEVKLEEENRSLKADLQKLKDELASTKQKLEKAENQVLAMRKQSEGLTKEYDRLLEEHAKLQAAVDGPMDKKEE
Assay: co-IP; lysates of HCC cells immunoprecipitated with anti-BAP31, anti-ELAVL1 or mouse IgG isotype antibody

Protein sequences, listed by entry. Tags and fused reporters are not part of them.
UniProt Q15717: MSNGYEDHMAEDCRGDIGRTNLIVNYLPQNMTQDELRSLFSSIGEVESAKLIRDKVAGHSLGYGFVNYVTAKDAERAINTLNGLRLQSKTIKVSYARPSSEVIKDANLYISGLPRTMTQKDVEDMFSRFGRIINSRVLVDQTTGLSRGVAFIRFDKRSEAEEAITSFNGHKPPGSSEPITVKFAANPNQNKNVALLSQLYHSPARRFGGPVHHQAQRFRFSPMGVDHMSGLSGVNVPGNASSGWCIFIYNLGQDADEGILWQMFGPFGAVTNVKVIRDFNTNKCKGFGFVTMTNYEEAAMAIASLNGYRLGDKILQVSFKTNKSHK

Substance: embryonic lethal abnormal vision like 1 (ELAVL1) (from UniProt Q15717 1-326)
- binding: binds

— publication PMC11844287
